Measured values reported in patent US20230120167A1 (AFFILOGIC, published 2023).
No constants are given. Whether binding was seen depends on the method and setting. Some binding calls cover weakened binding; strength is not graded here.

The chains behind the UniProt entries cited, without tags or fusion partners. Where a name states a change or a piece, a line headed by the entry shows the natural chain unless it says otherwise.
UniProt Q9NZQ7: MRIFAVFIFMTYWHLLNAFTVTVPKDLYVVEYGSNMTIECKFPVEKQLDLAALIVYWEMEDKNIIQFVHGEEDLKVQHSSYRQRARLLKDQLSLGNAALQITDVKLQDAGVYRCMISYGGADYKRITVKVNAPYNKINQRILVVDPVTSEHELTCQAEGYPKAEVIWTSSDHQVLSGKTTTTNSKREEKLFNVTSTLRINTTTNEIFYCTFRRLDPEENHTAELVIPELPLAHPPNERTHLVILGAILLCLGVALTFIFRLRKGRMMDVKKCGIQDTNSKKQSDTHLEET
UniProt Q9EP73: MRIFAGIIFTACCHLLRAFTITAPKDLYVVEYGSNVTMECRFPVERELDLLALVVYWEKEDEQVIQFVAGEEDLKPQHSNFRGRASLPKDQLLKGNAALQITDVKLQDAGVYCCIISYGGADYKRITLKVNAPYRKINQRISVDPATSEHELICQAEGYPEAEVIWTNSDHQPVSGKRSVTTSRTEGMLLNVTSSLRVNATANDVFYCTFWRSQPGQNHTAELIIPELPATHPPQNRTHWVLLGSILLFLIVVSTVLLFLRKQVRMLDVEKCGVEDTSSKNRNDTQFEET

Key:
[1] = molecular target: T1, human PD-L1 (human, UniProt Q9NZQ7 19-238, limits assumed); assay: inhibition of PD1/PD-L1 binding read as OD 450 nm against log concentration '[NF] ou [Ab]' (fits the competition ELISA of paragraph 396: human PD1 on the plate, biotinylated human PDL1); blocked partner: human PD-1
T1 construct: also called PD-1 ligand 1; CD274

[2] = molecular target: T1, human PD-L1; assay: sensorgram, response in nm against time in sec, titled 'Sample ID: B11 - by Loading Sample ID' (PD-L1 Human loaded, B11 as the sample); concentration of B11 not given
[3] = molecular target: T2, mouse PD-L1 (mouse, UniProt Q9EP73 19-238, limits assumed); assay: sensorgram, response in nm against time in sec, titled 'Sample ID: B11 - by Loading Sample ID' (PD-L1 Mouse loaded, B11 as the sample); concentration of B11 not given
T2 construct: also called murine PDL1

- binding [1]: binds
- binding [2]: binds
- binding [3]: binds
B1: B11 (Sac7d variant binding to PD-L1, SEQ ID NO: 21) (designed binder)
chain: MVKVKFVIGGEEKEVDTSKIKTVRRIGKYVLFKYDDNGKTGMGLVSEKDAPKELLDMLARAEREKK
notes: also called NF2; NF-B11
